Assay results: patent US20240366778A1 (CSPC MEGALITH BIOPHARMARCEUTICAL, published 2024)
Changes are numbered by the printed parent chain. No constants are given. Whether binding was seen depends on the method and setting. Some entries that bind do so weakly or less than the wild type. For part of these data: Sequences can lack the tags named with a protein.

T1: Recombinant Rat Nectin-4 His-tag Protein, CF (rat) (UniProt D3ZET1)
T1 sequence: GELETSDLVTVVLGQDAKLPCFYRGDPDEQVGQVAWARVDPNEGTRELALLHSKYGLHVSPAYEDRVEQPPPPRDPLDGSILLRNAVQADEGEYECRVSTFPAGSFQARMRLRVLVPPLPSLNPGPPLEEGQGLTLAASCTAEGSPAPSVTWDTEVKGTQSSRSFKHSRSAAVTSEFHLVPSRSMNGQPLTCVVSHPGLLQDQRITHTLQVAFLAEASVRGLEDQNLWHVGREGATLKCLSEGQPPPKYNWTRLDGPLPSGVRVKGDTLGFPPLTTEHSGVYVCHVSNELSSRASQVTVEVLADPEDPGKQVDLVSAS

B1: humanized antibody SWY2001-Ab3 (antibody, human IgG1, kappa, V domains shown)
VH: QVQLVQSGAEVKKPGASVKVSCKASGYTFTSYYIHWVRQAPGQRLEWMGWIYPGNVNTKYNENFRDRVTITRDTSASTAYMELSSLRSEDTAVYYCARGIYYFDYWGQGTLVTVSS
VL: AIQMTQSPSSLSASVGDRVTITCKASQSVNNDVAWYQQKPGKAPKLLIYYASNRDTGVPSRFSGSGSGTDFTLTISSLQPEDFATYFCHQDYSSPFTFGGGTKVEIKR
notes: Full-length IgG1, kappa
B2: humanized antibody SWY2001-Ab1 (antibody, human IgG1, kappa, V domains shown)
VH: B1 VH
VL: B1 VL with A1I, S9K, S10F, K42Q, A43S, S60D
B3: humanized antibody SWY2001-Ab2 (antibody, human IgG1, kappa, V domains shown)
VH: B1 VH
VL: B1 VL with P80A, F83L, T85V
notes: Full-length IgG1, kappa

Molecular target: T1, Recombinant Rat Nectin-4 His-tag Protein, CF (rat)
Assay: ELISA

binding, binds:
B1, B2, B3

Molecular target: Cynomolgus Nectin-4 Protein, His Tag (cynomolgus)
Assay: ELISA

binding, binds:
B1, B2, B3
